According to US6607711B2, “Mouth hygienic composition for the treatment of halitosis” (priority 1997, dated 2003):

Assay: Organoleptic qualities (taste) of zinc compounds

Zinc gluconate
organoleptic qualities / taste: very poor
